We go through five substances from paper PMC6509187.

Protein sequences, listed by entry. Tags and fused reporters are not part of them. Residues count along the entry.
UniProt Q8VDD5: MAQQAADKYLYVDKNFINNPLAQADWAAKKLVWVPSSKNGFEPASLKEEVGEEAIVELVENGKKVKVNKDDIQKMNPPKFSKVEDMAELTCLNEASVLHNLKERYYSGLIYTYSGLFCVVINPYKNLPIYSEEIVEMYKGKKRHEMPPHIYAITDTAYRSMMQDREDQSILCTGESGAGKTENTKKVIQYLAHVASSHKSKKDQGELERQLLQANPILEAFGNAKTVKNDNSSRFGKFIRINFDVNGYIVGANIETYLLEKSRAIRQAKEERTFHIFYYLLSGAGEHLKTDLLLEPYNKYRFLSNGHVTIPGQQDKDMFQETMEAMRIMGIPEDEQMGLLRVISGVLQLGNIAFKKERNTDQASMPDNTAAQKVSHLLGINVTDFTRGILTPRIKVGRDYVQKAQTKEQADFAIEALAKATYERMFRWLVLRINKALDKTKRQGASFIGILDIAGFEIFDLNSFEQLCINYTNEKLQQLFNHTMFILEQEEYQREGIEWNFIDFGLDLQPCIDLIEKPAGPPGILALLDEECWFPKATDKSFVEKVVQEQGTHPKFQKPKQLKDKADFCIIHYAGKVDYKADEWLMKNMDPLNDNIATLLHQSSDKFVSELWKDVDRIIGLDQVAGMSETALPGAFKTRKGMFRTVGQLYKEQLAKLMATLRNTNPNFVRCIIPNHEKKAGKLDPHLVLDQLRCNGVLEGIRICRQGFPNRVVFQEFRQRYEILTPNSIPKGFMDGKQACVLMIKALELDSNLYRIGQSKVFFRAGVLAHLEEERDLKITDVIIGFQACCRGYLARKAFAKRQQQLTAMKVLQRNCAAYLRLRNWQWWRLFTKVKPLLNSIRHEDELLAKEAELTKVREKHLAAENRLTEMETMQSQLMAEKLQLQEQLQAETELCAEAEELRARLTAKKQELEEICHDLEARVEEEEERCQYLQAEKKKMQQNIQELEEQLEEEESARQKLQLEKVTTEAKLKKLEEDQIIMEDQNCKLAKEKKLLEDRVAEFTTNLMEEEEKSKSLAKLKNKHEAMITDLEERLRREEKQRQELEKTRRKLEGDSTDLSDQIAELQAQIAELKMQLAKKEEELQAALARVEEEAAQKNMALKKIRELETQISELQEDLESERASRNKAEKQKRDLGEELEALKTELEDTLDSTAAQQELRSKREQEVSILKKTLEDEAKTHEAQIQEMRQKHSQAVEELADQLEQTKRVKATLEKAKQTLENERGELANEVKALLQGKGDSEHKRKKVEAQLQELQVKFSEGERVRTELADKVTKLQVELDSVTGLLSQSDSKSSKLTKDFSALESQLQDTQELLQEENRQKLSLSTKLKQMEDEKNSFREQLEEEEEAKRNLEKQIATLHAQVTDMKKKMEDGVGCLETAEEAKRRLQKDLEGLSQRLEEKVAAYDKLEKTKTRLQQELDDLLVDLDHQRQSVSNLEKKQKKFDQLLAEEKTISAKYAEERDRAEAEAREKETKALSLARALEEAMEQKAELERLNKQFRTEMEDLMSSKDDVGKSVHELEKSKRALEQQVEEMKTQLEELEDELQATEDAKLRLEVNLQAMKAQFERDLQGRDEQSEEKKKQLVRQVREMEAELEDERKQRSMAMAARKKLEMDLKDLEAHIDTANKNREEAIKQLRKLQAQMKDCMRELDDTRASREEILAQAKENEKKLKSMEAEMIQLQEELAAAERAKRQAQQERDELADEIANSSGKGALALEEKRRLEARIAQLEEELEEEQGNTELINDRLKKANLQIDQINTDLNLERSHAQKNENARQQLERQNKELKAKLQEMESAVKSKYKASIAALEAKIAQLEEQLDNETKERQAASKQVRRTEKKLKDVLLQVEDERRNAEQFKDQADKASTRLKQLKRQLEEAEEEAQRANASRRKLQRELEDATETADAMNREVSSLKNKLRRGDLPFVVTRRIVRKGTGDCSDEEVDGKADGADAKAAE
UniProt O54885, residues 22-114: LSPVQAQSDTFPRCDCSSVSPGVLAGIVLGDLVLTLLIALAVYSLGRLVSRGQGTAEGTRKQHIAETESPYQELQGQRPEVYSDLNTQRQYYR
UniProt Q00655: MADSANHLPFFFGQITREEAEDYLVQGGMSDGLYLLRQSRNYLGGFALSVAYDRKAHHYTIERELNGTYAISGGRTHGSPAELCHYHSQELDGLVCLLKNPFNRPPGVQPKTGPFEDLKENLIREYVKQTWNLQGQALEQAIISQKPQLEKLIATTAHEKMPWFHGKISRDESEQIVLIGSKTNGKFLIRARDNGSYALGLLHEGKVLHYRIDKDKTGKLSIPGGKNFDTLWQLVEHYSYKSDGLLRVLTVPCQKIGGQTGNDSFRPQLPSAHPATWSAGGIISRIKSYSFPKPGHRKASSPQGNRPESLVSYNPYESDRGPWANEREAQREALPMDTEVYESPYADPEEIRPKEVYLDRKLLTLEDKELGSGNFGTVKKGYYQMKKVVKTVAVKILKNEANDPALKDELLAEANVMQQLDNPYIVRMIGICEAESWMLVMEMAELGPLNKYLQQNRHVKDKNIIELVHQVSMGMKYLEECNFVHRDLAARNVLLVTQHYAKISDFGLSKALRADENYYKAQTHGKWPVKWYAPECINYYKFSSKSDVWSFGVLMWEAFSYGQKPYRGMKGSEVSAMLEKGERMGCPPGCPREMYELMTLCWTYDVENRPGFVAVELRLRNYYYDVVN

These are yes or no findings as the source states them, for the method shown. In cells and extracts the contact can be indirect. Some binding calls cover weakened binding; strength is not graded here. For some assays here: Where a sequence is shown, tags or fusion partners need not be part of it.

Experiment [1] has as its target NMHC-IIA (endogenous in RAW 264.7 cells) (mouse (endogenous in RAW 264.7)) (UniProt Q8VDD5). The experiment is described as follows: co-IP.
In experiment [2] the target is T1, 3×Flag-DAP12 (in CRL-2843-CD163 cells) (pig) (UniProt Q9TU45).
T1 sequence: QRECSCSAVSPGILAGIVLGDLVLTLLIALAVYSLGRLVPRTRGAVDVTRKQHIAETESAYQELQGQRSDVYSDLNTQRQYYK
The experiment is described as follows: co-IP; CRL-2843-CD163 cells transfected with 3×Flag-DAP12 or 3×Flag-DAP12 mutants for 48 h, infected with PRRSV (MOI = 5) for 1 h; Flag-tagged proteins immunoprecipitated; immunoblot.

In experiment [3] the target is T1, 3×Flag-DAP12 (in CRL-2843-CD163 cells) (pig). The experiment is described as follows: co-IP; CRL-2843-CD163 cells transfected with Syk-myc-his and 3×Flag-DAP12, mock infected or infected with PRRSV (MOI = 1) for 1 h; IP with anti-Flag MAb; NP-40 lysis buffer.
The target in experiment [4] is T2, 3×Flag-DAP12 (in HEK-293T cells) (pig) (UniProt Q9TU45).
T2 sequence: T1 sequence
The experiment is described as follows: co-IP; HEK-293T cells cotransfected with 3×Flag-DAP12 and Syk-myc-his for 48 h; IP with anti-Myc or anti-Flag MAb; NP-40 lysis buffer.

For experiment [5], the target named is T3, DNAX activation protein of 12 kDa (DAP12) (pig (endogenous in PAMs)) (UniProt Q9TU45).
T3 sequence: T1 sequence
The experiment is described as follows: co-IP.

Turning to “DAP12 (endogenous in RAW 264.7 cells) (from UniProt O54885 22-114)”, in experiment [1], the binding entry is “binds”.

Consider “Syk (in CRL-2843-CD163 cells transfected with DAP12 constructs only) (from UniProt Q00655 1-628)”, for which, in experiment [2], the binding entry is recorded as “binds”.

Take “Syk-myc-his (in CRL-2843-CD163 cells) (from UniProt Q00655 1-628)”: in experiment [3], the binding entry is “binds”.

Consider “Syk-myc-his (in HEK-293T cells) (from UniProt Q00655 1-628)”, for which the binding result in experiment [4] is “binds”.

Turning to “spleen tyrosine kinase (Syk) (from UniProt Q00655 1-628)”, the binding result in experiment [5] is on record as “binds”.
